In PubChem BioAssay AID248 (DTP/NCI, 2004):
The list does not hold the whole screen: it is rich in T/C values a quarter to a half above the control, in often repeated tests (any T/C) and in doses without a T/C. Other doses and runs of a compound stand elsewhere. T/C gives the treated animals as a percentage of the vehicle group. Some doses have a count of surviving animals in place of a T/C: the source files T/C as zero there, which appears to mark a toxic dose or a test without result, not a measured value. Some doses without a T/C left all or most animals alive at the check, yet need not have been tolerated: survival well below the control is almost never listed, so the zero probably covers shortened survival too. Survivors were counted at the toxicity check, usually on the fifth day, unless a day is given; later deaths do not show. Schedules are NCI's codes, read here as Q, the interval in days (D) or hours (H), X, the number of doses. Some entries were tested several times; the results are listed from low to high. Some schedules carry Z or #; the key to these is not given. Where survival is the endpoint, the PubChem record calls one and a half times the control and up active, and a quarter to a half above the control has no call in these data; cut-offs in other NCI protocols can differ. Some T/C values are followed by the survivors on the day toxicity was checked, most often the fifth; without a count, all were alive then.

Tested on: L1210 leukemia ip in BDF1 mice, survival T/C
Experiment: NCI In Vivo Anticancer Drug Screen. Data for tumor model L1210 Leukemia (intraperitoneal) in B6D2F1 (BDF1) mice
Settings: T/C endpoint: mean survival time, higher T/C = longer survival
[1] = dose: 400.0 mg/kg/injection, schedule: Q01DX001 (ip), vehicle: saline
[2] = dose: 100.0 mg/kg/injection, schedule: Q01DX001 (ip), vehicle: carboxymethylcellulose (CMC)
[3] = dose: 200.0 mg/kg/injection, schedule: Q01DX001 (ip), vehicle: carboxymethylcellulose (CMC)
[4] = dose: 400.0 mg/kg/injection, schedule: Q01DX001 (ip), vehicle: carboxymethylcellulose (CMC)
[5] = dose: 25.0 mg/kg/injection, schedule: Q01DX009 (ip), vehicle: saline with Tween-80
[6] = dose: 50.0 mg/kg/injection, schedule: Q01DX009 (ip), vehicle: saline with Tween-80
[7] = dose: 100.0 mg/kg/injection, schedule: Q01DX009 (ip), vehicle: saline with Tween-80
[8] = dose: 100.0 mg/kg/injection, schedule: Q04DX002 (ip), vehicle: saline with Tween-80
[9] = dose: 200.0 mg/kg/injection, schedule: Q04DX002 (ip), vehicle: saline with Tween-80
[10] = dose: 400.0 mg/kg/injection, schedule: Q04DX002 (ip), vehicle: saline with Tween-80
[11] = dose: 100.0 mg/kg/injection, schedule: Q01DX001 (ip), vehicle: saline

C[N+](C)(C)C1C2(CCCCC2)NC(=O)C12CCCCC2 (configuration not stated)
survivor count (dose: 150.0 mg/kg/injection, schedule: Q01DX001 (ip), vehicle: saline): 0 of 6
survivor count (dose: 300.0 mg/kg/injection, schedule: Q01DX001 (ip), vehicle: saline): 0 of 6

CCN(CC)CCOc1ccccc1OC
survivor count (dose: 100.0 mg/kg/injection, schedule: Q01DX009 (ip), vehicle: saline): 0 of 6
survivor count (dose: 200.0 mg/kg/injection, schedule: Q01DX009 (ip), vehicle: saline): 0 of 6
survivor count [1]: 0 of 6
survivor count (dose: 400.0 mg/kg/injection, schedule: Q01DX009 (ip), vehicle: saline): 0 of 6

Oc1cc(N2CC2)c(O)cc1N1CC1
T/C (dose: 0.6 mg/kg/injection, schedule: Q01DX009 (ip), vehicle: saline): 138 % of control
T/C (dose: 1.0 mg/kg/injection, schedule: Q01DX009 (ip), vehicle: saline): 131 % of control [5 of 6 alive]
survivor count (dose: 1.25 mg/kg/injection, schedule: Q01DX001 (ip), vehicle: saline): 4 of 6
survivor count (dose: 1.25 mg/kg/injection, schedule: Q01DX009 (ip), vehicle: saline): 6 of 6
T/C (dose: 2.0 mg/kg/injection, schedule: Q01DX009 (ip), vehicle: saline): 149 % of control
survivor count (dose: 2.5 mg/kg/injection, schedule: Q01DX001 (ip), vehicle: saline): 4 of 6
survivor count (dose: 2.5 mg/kg/injection, schedule: Q01DX009 (ip), vehicle: saline): 3 of 6
survivor count (dose: 5.0 mg/kg/injection, schedule: Q01DX001 (ip), vehicle: saline): 6 of 6
survivor count (dose: 5.0 mg/kg/injection, schedule: Q01DX009 (ip), vehicle: saline): 2 of 6
survivor count (dose: 10.0 mg/kg/injection, schedule: Q01DX001 (ip), vehicle: carboxymethylcellulose (CMC)): 4 of 4
survivor count (dose: 10.0 mg/kg/injection, schedule: Q01DX001 (ip), vehicle: saline): 1 of 6
survivor count (dose: 20.0 mg/kg/injection, schedule: Q01DX001 (ip), vehicle: carboxymethylcellulose (CMC)): 2 of 4
survivor count (dose: 40.0 mg/kg/injection, schedule: Q01DX001 (ip), vehicle: carboxymethylcellulose (CMC)): 2 of 4
survivor count (dose: 80.0 mg/kg/injection, schedule: Q01DX001 (ip), vehicle: carboxymethylcellulose (CMC)): 1 of 4
survivor count [2]: 0 of 4
survivor count [3]: 0 of 4
survivor count [4]: 0 of 4

Cc1ncc(C(=O)c2ccccc2)n1Cc1ccccc1
T/C [5]: 94 and 110 % of control
survivor count [5]: 3 of 3 and 6 of 6
T/C [6]: 104 and 118 % of control
survivor count [6]: 3 of 3 and 6 of 6
T/C [7]: 96, 100, 107 % of control
survivor count [7]: 3 of 3 and 6 of 6
T/C [8]: 88, 92, 105, 113 % of control
T/C [9]: 96, 100, 101 % of control
survivor count [9]: 3 of 3
T/C [10]: 88, 92, 96, 97 % of control

c1ccc2c(CNC3CCCCC3)c[nH]c2c1
survivor count [2]: 1 of 4
survivor count (dose: 120.0 mg/kg/injection, schedule: Q01DX015 (ip), vehicle: carboxymethylcellulose (CMC)): 0 of 6
survivor count (dose: 180.0 mg/kg/injection, schedule: Q01DX015 (ip), vehicle: carboxymethylcellulose (CMC)): 0 of 6
survivor count [3]: 0 of 4
survivor count (dose: 240.0 mg/kg/injection, schedule: Q01DX015 (ip), vehicle: carboxymethylcellulose (CMC)): 0 of 6
survivor count [4]: 0 of 4

COc1cc([C@@H]2c3cc4c(cc3[C@H](O)[C@H]3COC(=O)[C@@H]23)OCO4)cc(OC)c1OC
survivor count (dose: 7.5 mg/kg/injection, schedule: Q01DX Z (ip), vehicle: methylcellulose (MC)): 6 of 6
survivor count (dose: 36.0 mg/kg/injection, schedule: Q01DX Z (ip), vehicle: methylcellulose (MC)): 6 of 6
T/C (dose: 50.0 mg/kg/injection, schedule: Q01DX009 (ip), vehicle: saline): 134 % of control
survivor count (dose: 54.0 mg/kg/injection, schedule: Q01DX Z (ip), vehicle: methylcellulose (MC)): 5 of 6
survivor count (dose: 60.0 mg/kg/injection, schedule: Q01DX Z (ip), vehicle: methylcellulose (MC)): 4 of 6
survivor count (dose: 96.0 mg/kg/injection, schedule: Q01DX009 (ip), vehicle: Klucel (hydroxypropylcellulose) (HPC)): 5 of 6
T/C [11]: 125 [5 of 6 alive] and 143 % of control [5 of 6 alive]
survivor count (dose: 115.0 mg/kg/injection, schedule: Q01DX009 (ip), vehicle: saline): 2 of 6
survivor count (dose: 170.0 mg/kg/injection, schedule: Q01DX009 (ip), vehicle: saline): 3 of 6
T/C (dose: 178.0 mg/kg/injection, schedule: Q01DX001 (ip), vehicle: carboxymethylcellulose (CMC)): 126 % of control
T/C (dose: 200.0 mg/kg/injection, schedule: Q01DX001 (ip), vehicle: saline): 135 % of control [5 of 6 alive]
survivor count (dose: 255.0 mg/kg/injection, schedule: Q01DX009 (ip), vehicle: saline): 2 of 6
T/C (dose: 267.0 mg/kg/injection, schedule: Q01DX001 (ip), vehicle: carboxymethylcellulose (CMC)): 135 % of control
T/C [4]: 136 % of control
survivor count [1]: 2 of 6
survivor count (dose: 600.0 mg/kg/injection, schedule: Q01DX001 (ip), vehicle: carboxymethylcellulose (CMC)): 0 of 4

O=C(N/N=C\c1ccc(-c2ccccc2)cc1)N/N=C/c1ccc(-c2ccccc2)cc1
survivor count (dose: 400.0 mg/kg/injection, schedule: Q04DX003 (ip), vehicle: carboxymethylcellulose (CMC)): 6 of 6

N#CCCC(C#N)(c1cccnc1)N1CCOCC1 (configuration not stated)
survivor count [8]: 0 of 3
survivor count [9]: 0 of 3
survivor count [10]: 0 of 3

CCC1CCCC1=O (configuration not stated)
survivor count [11]: 4 of 4
survivor count [1]: 4 of 4

O=C1C2(c3ccccc3)C(c3ccccc3)=C(c3ccccc3)C1(c1ccccc1)C1CC=CC12 (configuration not stated)
survivor count (dose: 400.0 mg/kg/injection, schedule: Q01DX009 (ip), vehicle: saline with Tween-80): 3 of 6

O=c1ccc2c([N+](=O)[O-])cc([N+](=O)[O-])c(O)c2[nH]1
survivor count [1]: 1 of 4

COc1ccc(C=Nc2ccc(Cl)cc2)cc1
survivor count (dose: 400.0 mg/kg/injection, schedule: Q01DX009 (ip), vehicle: Klucel (hydroxypropylcellulose) (HPC)): 6 of 6

O=C(O)C(=O)c1c(O)n(-c2ccccc2)c2ccccc12
survivor count (dose: 200.0 mg/kg/injection, schedule: Q01DX001 (ip), vehicle: Klucel (hydroxypropylcellulose) (HPC)): 3 of 3
survivor count (dose: 400.0 mg/kg/injection, schedule: Q01DX001 (ip), vehicle: Klucel (hydroxypropylcellulose) (HPC)): 1 of 3

CCCCCCCCSS(C)(=O)=O
survivor count (dose: 75.0 mg/kg/injection, schedule: Q01DX001 (sc), vehicle: carboxymethylcellulose (CMC)): 0 of 6
survivor count (dose: 150.0 mg/kg/injection, schedule: Q01DX001 (sc), vehicle: carboxymethylcellulose (CMC)): 1 of 6
survivor count (dose: 300.0 mg/kg/injection, schedule: Q01DX001 (sc), vehicle: carboxymethylcellulose (CMC)): 0 of 6

CC(=O)OC1CCC2(C)C3=C(CCC2C1(C)C)C1CCC(C(C)CCC=C(C)C)C1(C)CC3 (configuration not stated)
survivor count (dose: 400.0 mg/kg/injection, schedule: Q04DX003 (ip), vehicle: Klucel (hydroxypropylcellulose) (HPC)): 0 of 3

CCC(C)C(CO)c1ccccc1 (configuration not stated)
survivor count (dose: 400.0 mg/kg/injection, schedule: Q04DX003 (ip), vehicle: saline with Tween-80): 0 of 6

CS(=O)(=O)OC[C@H](OS(=O)(=O)O)[C@H](COS(C)(=O)=O)OS(=O)(=O)O
survivor count [1]: 2 of 6
